Some of the results follow. The data scatter; read single values as rough.
These targets were tested with ClCC(=O)N[C@@H]1CCCc2ccccc12 (assay: log2 mean competition ratio of IA-DTB cysteine labelling (DMSO/compound) (log2 ratio); higher = stronger cysteine engagement by compound). Conditions: 50 µM; treatment time: 4 h; cell line lysate: HEK293T.
Description: (§1)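 IA-DTB competitive cysteine chemoproteomics in HEK293T RIPA lysate. Lysates were treated with compound 29 or 30 at 50 or 200 µM for 4 h, then IA-DTB (500 µM, 1 h), trypsin-digested, NeutrAvidin-enriched and analysed by diaPASEF. Competition ratio = intensity DMSO / intensity compound (n=4 treated, n=64 DMSO); binding: mean log2 CR ≥ 1 and p ≤ 0.05 plus QC filters. Target is the cysteine site.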

Chains of the proteins cited; added tags and fusions are not shown. Lines headed by an entry give the natural chain unless they say otherwise; changes in a name come on top.
UniProt P53611: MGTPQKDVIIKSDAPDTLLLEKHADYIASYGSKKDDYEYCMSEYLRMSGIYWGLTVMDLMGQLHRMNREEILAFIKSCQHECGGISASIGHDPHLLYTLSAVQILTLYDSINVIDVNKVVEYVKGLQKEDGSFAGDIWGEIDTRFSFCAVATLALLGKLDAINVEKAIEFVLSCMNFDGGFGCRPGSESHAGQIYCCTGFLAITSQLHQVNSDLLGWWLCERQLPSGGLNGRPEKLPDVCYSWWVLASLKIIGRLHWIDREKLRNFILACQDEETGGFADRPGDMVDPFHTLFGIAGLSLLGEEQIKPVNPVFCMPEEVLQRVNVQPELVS
UniProt Q86TP1: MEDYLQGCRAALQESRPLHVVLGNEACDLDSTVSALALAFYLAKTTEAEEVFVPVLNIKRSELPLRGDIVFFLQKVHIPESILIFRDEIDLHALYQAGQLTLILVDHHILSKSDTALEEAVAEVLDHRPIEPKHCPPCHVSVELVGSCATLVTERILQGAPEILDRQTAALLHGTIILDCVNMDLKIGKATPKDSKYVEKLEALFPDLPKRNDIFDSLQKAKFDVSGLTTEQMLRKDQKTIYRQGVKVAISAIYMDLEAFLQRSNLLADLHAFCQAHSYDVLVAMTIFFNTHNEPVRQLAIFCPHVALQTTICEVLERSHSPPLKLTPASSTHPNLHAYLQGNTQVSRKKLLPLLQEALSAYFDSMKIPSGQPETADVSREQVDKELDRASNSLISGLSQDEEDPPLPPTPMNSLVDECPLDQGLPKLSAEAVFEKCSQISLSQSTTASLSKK
UniProt Q9ULC3: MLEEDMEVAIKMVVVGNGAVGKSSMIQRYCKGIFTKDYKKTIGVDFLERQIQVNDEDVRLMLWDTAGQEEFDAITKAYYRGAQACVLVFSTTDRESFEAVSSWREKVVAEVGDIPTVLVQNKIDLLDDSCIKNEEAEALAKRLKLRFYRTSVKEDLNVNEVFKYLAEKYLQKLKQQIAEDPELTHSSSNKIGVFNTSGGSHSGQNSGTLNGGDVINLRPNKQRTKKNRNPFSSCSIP
UniProt Q9UNM6: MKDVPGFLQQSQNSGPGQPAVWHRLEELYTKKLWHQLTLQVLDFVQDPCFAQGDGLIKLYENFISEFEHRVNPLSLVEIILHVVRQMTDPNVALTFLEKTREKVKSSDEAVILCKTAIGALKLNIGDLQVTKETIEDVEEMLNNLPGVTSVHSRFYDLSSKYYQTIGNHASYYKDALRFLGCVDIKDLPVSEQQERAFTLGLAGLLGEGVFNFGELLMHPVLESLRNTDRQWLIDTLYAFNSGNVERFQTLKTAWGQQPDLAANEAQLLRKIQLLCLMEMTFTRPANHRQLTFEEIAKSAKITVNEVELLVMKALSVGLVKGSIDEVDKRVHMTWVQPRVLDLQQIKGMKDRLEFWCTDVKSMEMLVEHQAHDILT
UniProt Q96E17: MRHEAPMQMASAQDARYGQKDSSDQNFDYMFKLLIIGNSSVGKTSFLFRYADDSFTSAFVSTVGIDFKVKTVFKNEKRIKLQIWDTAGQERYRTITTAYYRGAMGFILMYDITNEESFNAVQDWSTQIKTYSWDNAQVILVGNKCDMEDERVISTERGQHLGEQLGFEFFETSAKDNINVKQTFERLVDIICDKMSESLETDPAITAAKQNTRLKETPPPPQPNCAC
UniProt Q5THK1: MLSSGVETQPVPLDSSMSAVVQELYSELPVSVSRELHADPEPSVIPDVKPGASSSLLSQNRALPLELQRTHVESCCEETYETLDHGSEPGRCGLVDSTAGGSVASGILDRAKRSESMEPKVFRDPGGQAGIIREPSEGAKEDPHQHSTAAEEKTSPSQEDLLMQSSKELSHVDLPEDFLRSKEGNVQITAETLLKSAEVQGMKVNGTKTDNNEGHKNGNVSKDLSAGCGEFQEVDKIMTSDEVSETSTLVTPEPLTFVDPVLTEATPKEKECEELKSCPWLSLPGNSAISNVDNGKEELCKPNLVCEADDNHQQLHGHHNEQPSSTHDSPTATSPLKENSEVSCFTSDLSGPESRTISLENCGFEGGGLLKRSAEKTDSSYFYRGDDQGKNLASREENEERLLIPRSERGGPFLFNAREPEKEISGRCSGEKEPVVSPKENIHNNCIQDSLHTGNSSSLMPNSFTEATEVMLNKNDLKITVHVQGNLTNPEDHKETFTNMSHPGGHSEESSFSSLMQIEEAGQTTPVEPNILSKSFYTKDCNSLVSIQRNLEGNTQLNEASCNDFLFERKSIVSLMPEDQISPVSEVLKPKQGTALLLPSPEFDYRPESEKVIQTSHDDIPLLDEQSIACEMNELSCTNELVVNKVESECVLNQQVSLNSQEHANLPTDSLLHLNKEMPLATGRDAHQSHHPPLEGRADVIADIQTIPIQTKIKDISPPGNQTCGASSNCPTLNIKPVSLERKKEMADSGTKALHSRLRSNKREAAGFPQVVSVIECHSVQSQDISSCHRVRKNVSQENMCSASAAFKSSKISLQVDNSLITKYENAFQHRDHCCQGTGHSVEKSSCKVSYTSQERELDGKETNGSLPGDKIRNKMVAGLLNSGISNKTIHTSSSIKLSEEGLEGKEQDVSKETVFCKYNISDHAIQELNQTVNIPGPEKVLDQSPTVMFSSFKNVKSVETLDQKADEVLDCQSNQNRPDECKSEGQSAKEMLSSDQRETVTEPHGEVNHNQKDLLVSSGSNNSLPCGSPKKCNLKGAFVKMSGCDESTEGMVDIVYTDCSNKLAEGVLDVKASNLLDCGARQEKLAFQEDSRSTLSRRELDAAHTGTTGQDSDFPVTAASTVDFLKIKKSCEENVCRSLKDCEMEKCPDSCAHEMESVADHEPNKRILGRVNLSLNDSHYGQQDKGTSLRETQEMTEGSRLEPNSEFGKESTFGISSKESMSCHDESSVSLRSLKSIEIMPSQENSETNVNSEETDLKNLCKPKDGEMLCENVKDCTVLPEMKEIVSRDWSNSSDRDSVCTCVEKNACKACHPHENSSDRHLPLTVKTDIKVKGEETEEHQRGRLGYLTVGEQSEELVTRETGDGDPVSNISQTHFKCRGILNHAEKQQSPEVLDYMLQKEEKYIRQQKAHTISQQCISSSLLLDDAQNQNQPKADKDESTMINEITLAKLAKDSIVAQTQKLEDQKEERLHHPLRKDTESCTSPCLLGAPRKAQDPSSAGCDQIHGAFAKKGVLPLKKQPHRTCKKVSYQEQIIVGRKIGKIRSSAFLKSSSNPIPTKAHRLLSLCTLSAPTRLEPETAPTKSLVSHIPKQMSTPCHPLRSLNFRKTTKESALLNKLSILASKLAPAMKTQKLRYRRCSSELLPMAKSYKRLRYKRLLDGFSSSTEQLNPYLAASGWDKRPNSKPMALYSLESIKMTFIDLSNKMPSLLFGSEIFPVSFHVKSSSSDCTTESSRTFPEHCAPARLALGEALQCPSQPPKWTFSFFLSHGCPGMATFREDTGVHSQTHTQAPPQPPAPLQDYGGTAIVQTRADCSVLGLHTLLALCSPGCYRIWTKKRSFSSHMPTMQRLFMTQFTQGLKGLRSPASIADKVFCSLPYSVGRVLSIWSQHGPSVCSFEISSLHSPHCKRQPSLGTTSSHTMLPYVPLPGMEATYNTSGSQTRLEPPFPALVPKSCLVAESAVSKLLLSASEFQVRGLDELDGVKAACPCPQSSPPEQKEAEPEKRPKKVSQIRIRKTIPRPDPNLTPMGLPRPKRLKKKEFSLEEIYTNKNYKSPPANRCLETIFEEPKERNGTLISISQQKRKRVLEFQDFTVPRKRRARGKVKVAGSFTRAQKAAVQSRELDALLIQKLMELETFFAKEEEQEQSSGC
UniProt Q7Z6K3: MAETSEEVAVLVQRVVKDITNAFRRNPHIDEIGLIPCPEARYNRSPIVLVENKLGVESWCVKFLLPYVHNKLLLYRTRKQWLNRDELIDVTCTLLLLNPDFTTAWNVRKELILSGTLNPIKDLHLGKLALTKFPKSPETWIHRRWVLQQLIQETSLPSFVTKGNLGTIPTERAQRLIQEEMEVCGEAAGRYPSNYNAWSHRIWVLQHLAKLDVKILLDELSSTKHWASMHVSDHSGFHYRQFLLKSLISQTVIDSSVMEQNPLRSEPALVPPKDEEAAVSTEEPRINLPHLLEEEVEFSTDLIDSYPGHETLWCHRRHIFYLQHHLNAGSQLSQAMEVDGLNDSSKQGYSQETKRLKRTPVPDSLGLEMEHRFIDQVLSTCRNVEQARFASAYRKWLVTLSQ
UniProt Q8WUD1: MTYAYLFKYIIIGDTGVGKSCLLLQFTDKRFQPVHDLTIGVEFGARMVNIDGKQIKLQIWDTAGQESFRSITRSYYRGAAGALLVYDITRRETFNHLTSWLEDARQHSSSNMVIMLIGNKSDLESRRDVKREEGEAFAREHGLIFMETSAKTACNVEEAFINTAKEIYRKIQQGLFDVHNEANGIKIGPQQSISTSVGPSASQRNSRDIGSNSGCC
UniProt Q9Y3P9: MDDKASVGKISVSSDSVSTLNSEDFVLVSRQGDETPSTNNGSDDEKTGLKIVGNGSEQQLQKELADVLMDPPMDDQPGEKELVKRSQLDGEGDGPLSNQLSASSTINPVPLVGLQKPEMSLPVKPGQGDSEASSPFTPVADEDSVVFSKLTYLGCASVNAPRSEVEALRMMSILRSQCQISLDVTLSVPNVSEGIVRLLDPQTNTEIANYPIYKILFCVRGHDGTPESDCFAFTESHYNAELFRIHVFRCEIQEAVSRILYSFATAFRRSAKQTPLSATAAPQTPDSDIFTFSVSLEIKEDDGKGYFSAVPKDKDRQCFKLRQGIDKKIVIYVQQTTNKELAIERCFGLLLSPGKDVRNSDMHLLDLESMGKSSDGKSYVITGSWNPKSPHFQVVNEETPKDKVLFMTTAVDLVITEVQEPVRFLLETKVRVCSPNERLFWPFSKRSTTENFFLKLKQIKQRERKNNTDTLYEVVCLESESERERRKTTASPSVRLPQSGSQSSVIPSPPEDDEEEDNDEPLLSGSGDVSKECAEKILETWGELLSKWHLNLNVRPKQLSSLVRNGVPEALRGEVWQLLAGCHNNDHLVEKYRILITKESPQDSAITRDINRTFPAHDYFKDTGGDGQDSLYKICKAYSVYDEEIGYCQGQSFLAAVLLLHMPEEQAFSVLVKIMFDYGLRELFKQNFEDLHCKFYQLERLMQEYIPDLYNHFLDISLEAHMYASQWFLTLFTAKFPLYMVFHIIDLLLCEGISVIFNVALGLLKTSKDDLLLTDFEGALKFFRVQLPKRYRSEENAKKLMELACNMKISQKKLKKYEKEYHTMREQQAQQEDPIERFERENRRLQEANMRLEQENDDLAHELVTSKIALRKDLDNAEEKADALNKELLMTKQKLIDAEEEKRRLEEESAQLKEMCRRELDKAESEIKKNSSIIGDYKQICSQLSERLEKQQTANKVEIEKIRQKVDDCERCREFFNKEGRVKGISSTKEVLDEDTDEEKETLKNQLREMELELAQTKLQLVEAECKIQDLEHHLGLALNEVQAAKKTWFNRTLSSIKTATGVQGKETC
UniProt Q9UL46, whole entry, looked up: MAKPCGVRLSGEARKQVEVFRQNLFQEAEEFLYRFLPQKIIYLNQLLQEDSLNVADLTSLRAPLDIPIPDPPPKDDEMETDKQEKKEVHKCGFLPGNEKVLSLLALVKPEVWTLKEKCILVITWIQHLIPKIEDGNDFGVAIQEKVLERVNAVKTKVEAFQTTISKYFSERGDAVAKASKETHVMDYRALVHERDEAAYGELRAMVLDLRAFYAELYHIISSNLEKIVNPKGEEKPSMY

Target | log2 mean competition ratio
PSMD1 C104 | -0.166
RAD54L C295 (UniProt Q92698) | -0.123
PTPN12 C343 (UniProt Q05209) | 0.0357
R3HCC1L C40 | 0.263
PSMG2 C195 (UniProt Q969U7) | -0.286
PTK7 C524 (UniProt Q13308) | 0.0761
RABGGTB C40 (UniProt P53611) | -0.22
PRUNE1 C8 (UniProt Q86TP1) | -0.0111
RAD54B C789 (UniProt Q9Y620) | -0.311
RAD51B C16 (UniProt O15315) | 0.101
PSMC4 C379 (UniProt P43686) | -0.347
PSMB2 C91 | 0.215
PYGB C326 (UniProt P11216) | 0.0626
RAB23 C130 (UniProt Q9ULC3) | -0.19
PSMD13 C357 (UniProt Q9UNM6) | 0.102
RAB3IP C389 (UniProt Q96QF0) | -0.117
PSMD8 C173 | 0.183
QSER1 C1709 | -0.209

Target | log2 mean competition ratio
RAB3C C145 (UniProt Q96E17) | -0.108
RAB28 C31 (UniProt P51157) | 0.0939
RABGAP1L C139 (UniProt Q5R372) | 0.219
PRRC2C C587 (UniProt Q9Y520) | -0.0842
PRRC2B C1184 | -0.000487
PRR14L C92 (UniProt Q5THK1) | -0.0345
PTPN12 C470 (UniProt Q05209) | -0.104
PTAR1 C37 (UniProt Q7Z6K3) | 0.0593
PXDC1 C115 | 0.11
PRR14L C1271 (UniProt Q5THK1) | 0.0303
PXK C570 (UniProt Q7Z7A4) | -0.0124
RAB2B C154 (UniProt Q8WUD1) | -0.0224
RABGAP1 C433 (UniProt Q9Y3P9) | -0.0193
PSME2 C5 (UniProt Q9UL46) | 0.0741
RABGAP1 C805 (UniProt Q9Y3P9) | 0.253
RAD50 C633 | 0.273
PUS3 C420 (UniProt Q9BZE2) | 0.0649
PTPRG C858 (UniProt P23470) | -0.194

Same assay, conditions: 200 µM; treatment time: 4 h; cell line lysate: HEK293T

Target | log2 mean competition ratio
PSMD1 C104 | -0.0484
RAD54L C295 (UniProt Q92698) | 0.601
PTPN12 C343 (UniProt Q05209) | 0.127
R3HCC1L C40 | -0.299
PSMG2 C195 (UniProt Q969U7) | -0.165
PTK7 C524 (UniProt Q13308) | 0.318
RABGGTB C40 (UniProt P53611) | -0.165
PRUNE1 C8 (UniProt Q86TP1) | 0.113
RAD54B C789 (UniProt Q9Y620) | 0.0546
RAD50 C53 | -0.266
RAD51B C16 (UniProt O15315) | 0.141
PSMC4 C379 (UniProt P43686) | 0.336
PSMB2 C91 | 0.153
PYGB C326 (UniProt P11216) | -0.0326
RAB23 C130 (UniProt Q9ULC3) | -0.29
PSMD13 C357 (UniProt Q9UNM6) | -0.351
RAB3IP C389 (UniProt Q96QF0) | -0.204
PSMD8 C173 | -0.563
QSER1 C1709 | 0.245

Target | log2 mean competition ratio
RAB3C C145 (UniProt Q96E17) | -0.0204
RAB28 C31 (UniProt P51157) | -0.0139
RABGAP1L C139 (UniProt Q5R372) | -0.169
PRRC2C C587 (UniProt Q9Y520) | -0.112
PRRC2B C1184 | 0.125
PRR14L C92 (UniProt Q5THK1) | 0.0528
PTPN12 C470 (UniProt Q05209) | -0.0838
PTAR1 C37 (UniProt Q7Z6K3) | 0.27
PXDC1 C115 | 0.0529
PRR14L C1271 (UniProt Q5THK1) | 0.0739
PXK C570 (UniProt Q7Z7A4) | -0.271
RAB2B C154 (UniProt Q8WUD1) | -0.0772
RABGAP1 C433 (UniProt Q9Y3P9) | -0.149
PSME2 C5 (UniProt Q9UL46) | 0.191
RABGAP1 C805 (UniProt Q9Y3P9) | -0.0581
RAD50 C633 | 0.406
PUS3 C420 (UniProt Q9BZE2) | 0.322
PTPRG C858 (UniProt P23470) | -0.108

Each target was assayed with ClCC(=O)N[C@H]1CCCc2ccccc12 in the same assay as above. Conditions: 50 µM; treatment time: 4 h; cell line lysate: HEK293T.
Description: as §1

Target | log2 mean competition ratio
PSMD1 C104 | 0.126
RAD54L C295 (UniProt Q92698) | 0.0857
PTPN12 C343 (UniProt Q05209) | -0.00651
R3HCC1L C40 | -0.0106
PSMG2 C195 (UniProt Q969U7) | -0.321
PTK7 C524 (UniProt Q13308) | 0.186
RABGGTB C40 (UniProt P53611) | -0.107
PRUNE1 C8 (UniProt Q86TP1) | 0.0118
RAD54B C789 (UniProt Q9Y620) | -0.225
RAD51B C16 (UniProt O15315) | 0.0647
PSMC4 C379 (UniProt P43686) | -0.266
PSMB2 C91 | 0.486
PYGB C326 (UniProt P11216) | -0.135
RAB23 C130 (UniProt Q9ULC3) | -0.501
PSMD13 C357 (UniProt Q9UNM6) | 0.00967
RAB3IP C389 (UniProt Q96QF0) | -0.0163
PSMD8 C173 | -0.134
QSER1 C1709 | -0.317

Target | log2 mean competition ratio
RAB3C C145 (UniProt Q96E17) | -0.246
RAB28 C31 (UniProt P51157) | -0.407
RABGAP1L C139 (UniProt Q5R372) | 0.573
PRRC2C C587 (UniProt Q9Y520) | -0.19
PRRC2B C1184 | 0.145
PRR14L C92 (UniProt Q5THK1) | 0.798
PTPN12 C470 (UniProt Q05209) | 0.237
PTAR1 C37 (UniProt Q7Z6K3) | 0.242
PXDC1 C115 | -0.207
PRR14L C1271 (UniProt Q5THK1) | 0.205
PXK C570 (UniProt Q7Z7A4) | 0.1
RAB2B C154 (UniProt Q8WUD1) | -0.0185
RABGAP1 C433 (UniProt Q9Y3P9) | 0.269
PSME2 C5 (UniProt Q9UL46) | 0.2
RABGAP1 C805 (UniProt Q9Y3P9) | 0.263
RAD50 C633 | 0.062
PUS3 C420 (UniProt Q9BZE2) | 0.0978
PTPRG C858 (UniProt P23470) | -0.456
